The source of these data is article PMC10113255, “PHF14 enhances DNA methylation of SMAD7 gene to promote TGF-β-driven lung adenocarcinoma metastasis”.

Numbering of substitutions follows the chain as printed. The exact form of at least one protein or probe is not confirmed. For part of these data: A negative result means that nothing was seen under these conditions. At least one verdict rests on a figure or table, not on a statement of the authors. Where a protein sequence is shown, tags need not be part of it.

Common to all, as to test: EMSA
(In EMSA bound probe runs differently from free probe, usually more slowly.)

Series [1] deals with T1, PHF14 ePHD domain E430A K435A (Homo sapiens) (UniProt O94880).
T1 sequence (looked up, limits assumed): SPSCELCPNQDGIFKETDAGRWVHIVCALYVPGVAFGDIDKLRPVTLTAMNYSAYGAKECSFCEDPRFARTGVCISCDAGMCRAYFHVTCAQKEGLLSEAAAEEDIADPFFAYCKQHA
The note with it: text: 'drastically vanished', text says methylated CG-rich probe, legend says unmethylated, SPR shows residual binding; EMSA: LightShift kit protocol, 0.5x TBE native PAGE, buffer not stated; recombinant protein; protein details: His (EMSA, purification method), FLAG (SPR); label: biotin (EMSA).

In series [2] the test system is T2, PHF14 full-length E430A K435A (Homo sapiens).
T2 sequence (looked up, limits assumed): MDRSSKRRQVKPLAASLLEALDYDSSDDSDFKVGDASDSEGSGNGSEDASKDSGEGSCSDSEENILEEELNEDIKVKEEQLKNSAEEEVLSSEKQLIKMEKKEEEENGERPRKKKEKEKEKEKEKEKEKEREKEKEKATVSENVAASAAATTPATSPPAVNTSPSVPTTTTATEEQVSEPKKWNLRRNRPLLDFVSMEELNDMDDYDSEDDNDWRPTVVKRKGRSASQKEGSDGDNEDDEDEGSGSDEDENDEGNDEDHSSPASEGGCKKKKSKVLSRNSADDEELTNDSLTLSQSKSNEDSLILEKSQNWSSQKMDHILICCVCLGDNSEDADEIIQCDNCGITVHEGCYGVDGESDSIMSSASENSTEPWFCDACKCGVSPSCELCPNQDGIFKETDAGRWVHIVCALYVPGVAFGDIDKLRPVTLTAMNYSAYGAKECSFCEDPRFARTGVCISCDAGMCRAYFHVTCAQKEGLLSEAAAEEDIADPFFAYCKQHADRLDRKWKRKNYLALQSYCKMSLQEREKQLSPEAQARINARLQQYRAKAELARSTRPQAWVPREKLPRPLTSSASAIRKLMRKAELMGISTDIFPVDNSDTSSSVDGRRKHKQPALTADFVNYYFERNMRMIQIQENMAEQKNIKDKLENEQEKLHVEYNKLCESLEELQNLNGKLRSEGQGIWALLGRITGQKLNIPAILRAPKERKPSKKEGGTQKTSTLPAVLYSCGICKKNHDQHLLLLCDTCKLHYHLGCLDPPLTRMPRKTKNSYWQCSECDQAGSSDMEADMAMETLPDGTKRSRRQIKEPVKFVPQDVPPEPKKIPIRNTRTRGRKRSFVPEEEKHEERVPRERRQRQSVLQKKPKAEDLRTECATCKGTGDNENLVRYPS
To be noted: text: 'drastically vanished', text says methylated CG-rich probe, legend says unmethylated; EMSA: LightShift kit protocol, 0.5x TBE native PAGE, buffer not stated; recombinant protein; protein details: His; label: biotin (EMSA).

Series [3] concerns T3, PHF14 full-length WT (Homo sapiens).
T3 sequence (looked up, limits assumed): T2 sequence (looked up, limits assumed) with A430E, A435K
To be noted: EMSA: LightShift kit protocol, 0.5x TBE native PAGE, buffer not stated; recombinant protein; protein details: His; label: biotin (EMSA).

For the sequence “ACGGCTCGTCGCTACGGCTCGTCGCT (double strand) [CG-rich probe, unmethylated]”, the values for the binding result in series [1], in series [2] and in series [3] were “no binding”, “no binding” and “binds”, respectively.
